Source: paper PMC7819943, “Rice protein-binding microarrays: a tool to detect cis-acting elements near promoter regions in rice”
Some of the results follow.

By UniProt entry, the sequences of proteins in these tests, tags left out.
UniProt Q0JBA9, entry or part of it: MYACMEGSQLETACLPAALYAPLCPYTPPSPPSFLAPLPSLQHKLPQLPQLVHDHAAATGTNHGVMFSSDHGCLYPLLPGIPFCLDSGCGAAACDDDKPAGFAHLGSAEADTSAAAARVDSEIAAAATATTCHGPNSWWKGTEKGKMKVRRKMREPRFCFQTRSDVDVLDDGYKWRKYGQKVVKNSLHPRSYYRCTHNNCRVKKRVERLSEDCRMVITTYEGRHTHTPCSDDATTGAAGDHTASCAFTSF

Target: OsWRKY34 (Oryza sativa, UniProt Q0JBA9 1-250)
Test: protein-binding microarray (RPBM); PBS, 2% BSA, 51.3 ng/ul salmon testes DNA, 50 uM zinc acetate, 200 nM TF, 25 C, 1 h; high values mean tight binding
Conditions: protein: recombinant; tags: N-terminal polyhistidine and DsRed monomer fusion (pET32a); label: CyDye5-dUTP incorporated in the synthesized complementary strand; 3' TTTTT single-stranded linker to array surface; dsDNA, one strand shown
Procedure, shortened: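 An Axon 4000B scanner gave the binding signal as per-feature fluorescence intensity in arbitrary units. This followed washing of a custom Agilent array that had been incubated for 1 h at 25 °C with 200 nM protein in PBS, 2% BSA, salmon testes DNA and 50 µM zinc acetate. The proteins were transcription factors fused at the N-terminus to polyhistidine and DsRed, expressed in E. coli BL21-CodonPlus and purified on Ni–NTA.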

Row | Sequence | binding signal
1 | GTTTCAGGTTATAAGATATTTTGACTTTGTTTAAAGTCAACGGAGTCACCTAGTGCAG | 8360 fluorescence intensity (a.u.)
2 | CTCTCCTCCACTCCGCTCCCGTCGCCGCCACATCGCCATGCGGAGTCACCTAGTGCAG | 8770 fluorescence intensity (a.u.)
3 | GCCTCGCCTCCGCGCACCTGGCCTCCGTAGATCCAAACGTCGGAGTCACCTAGTGCAG | 9480 fluorescence intensity (a.u.)
4 | TGGTGATTTGGGTGTTTCTTTGTTCGGAATTGCAGGGAGGCGGAGTCACCTAGTGCAG | 9420 fluorescence intensity (a.u.)
5 | TGTGTTATTGGTTTTGTCTTGATCTGTACTGGCTTGTCTACGGAGTCACCTAGTGCAG | 9080 fluorescence intensity (a.u.)
6 | TATTATATGCCACATCTTAGCACAAGGTTGTTTTTGTTTTCGGAGTCACCTAGTGCAG | 9420 fluorescence intensity (a.u.)
7 | ACACATTCGTTTTCCATCCTCTCGCGCTGGTCTCAGCCCCCGGAGTCACCTAGTGCAG | 8810 fluorescence intensity (a.u.)
8 | GCTCTCCCTCCTCACGTCACGCGTGCCAAGTGCGATCCCCCGGAGTCACCTAGTGCAG | 8200 fluorescence intensity (a.u.)
9 | ATTCTTGATAGTACTAGTATTAGATTGTCATCGATATTTTCGGAGTCACCTAGTGCAG | 8150 fluorescence intensity (a.u.)
10 | AGTGAGTAGTATATTCTGTTTACTTCCAAGTTATGCTGACCGGAGTCACCTAGTGCAG | 8900 fluorescence intensity (a.u.)
11 | TACTTCATACCTATACTTATCTCTAGTAATTTTTTCATGACGGAGTCACCTAGTGCAG | 8390 fluorescence intensity (a.u.)
12 | ACACATATAAACTTTTAACTTTTCCGTCACATCGTTCCAACGGAGTCACCTAGTGCAG | 8970 fluorescence intensity (a.u.)
13 | AATCCTCTGAAAATCCTATAACATTTCATCTCAAATTTGTCGGAGTCACCTAGTGCAG | 8580 fluorescence intensity (a.u.)
14 | GCACCTCAACTGCCCCTTGTTTCCTTATCAATCTAATAAACGGAGTCACCTAGTGCAG | 11300 fluorescence intensity (a.u.)
15 | CTATTACATGTGGGACCCACCCGTCAGTTCTCTCTTCTCTCGGAGTCACCTAGTGCAG | 8770 fluorescence intensity (a.u.)
16 | GAGAGGGAGGGAGGGGATAAAGGAGAGAGAGAGGGAGGGTCGGAGTCACCTAGTGCAG | 11900 fluorescence intensity (a.u.)
17 | GTTCCTAATTGAAGTACCTCTTATGTTAACTTTTATTTGTCGGAGTCACCTAGTGCAG | 8510 fluorescence intensity (a.u.)
18 | ATTCCTATATAGACACTGTACTCTACTTCTAATGTTCCTTCGGAGTCACCTAGTGCAG | 8140 fluorescence intensity (a.u.)
19 | TTATATATGTCACGCTACTATTACATCTAGATCTTTTGCACGGAGTCACCTAGTGCAG | 9000 fluorescence intensity (a.u.)
20 | ATAGTTGCAAACATGGTTCCTGTACACCCCAGTCGAGAAACGGAGTCACCTAGTGCAG | 8170 fluorescence intensity (a.u.)
21 | TTCTTCTTGTCCTCCAAGCTCAGCTGTGCCACCCTAGCAACGGAGTCACCTAGTGCAG | 10900 fluorescence intensity (a.u.)
22 | CTTATATTAGCCGCTACCCTTGTTTCTCAATGAATATTTACGGAGTCACCTAGTGCAG | 8950 fluorescence intensity (a.u.)
23 | CCAAACCATTAACACATGCATCCTGCATCCTATACCACTCCGGAGTCACCTAGTGCAG | 8600 fluorescence intensity (a.u.)
24 | GCTCGCGCTGTTCCCGCCTCGCTGCCACCTGTCACCTCCTCGGAGTCACCTAGTGCAG | 8460 fluorescence intensity (a.u.)
25 | TTCCAACTTTACCTCTCGTTTTTCACGCGTGTGCTCCTGACGGAGTCACCTAGTGCAG | 13300 fluorescence intensity (a.u.)
26 | GCCGGCTTCCTAATTTTGTTTTCTGCACGCTTTTAAAACTCGGAGTCACCTAGTGCAG | 10100 fluorescence intensity (a.u.)
27 | TCATCCTGTATCTGGGACCGCATTGCTATTTACGGTTCCTCGGAGTCACCTAGTGCAG | 8790 fluorescence intensity (a.u.)

Row | Sequence | binding signal
28 | GTCCCACCCACCACCTCTCTCTCTCTCTCTCTCTCTCTCTCGGAGTCACCTAGTGCAG | 9170 fluorescence intensity (a.u.)
29 | GCCTTCTGACTAATCACACTCCTTCACAGCCTAATCTTCCCGGAGTCACCTAGTGCAG | 8240 fluorescence intensity (a.u.)
30 | ATGTTTTATGAGATGATTTGGTTGTGTTTCAGCTTTTTAACGGAGTCACCTAGTGCAG | 8690 fluorescence intensity (a.u.)
31 | CATTAATTTTGGCATATACTCTAGCTGTCATGTTTCATTCCGGAGTCACCTAGTGCAG | 13400 fluorescence intensity (a.u.)
32 | CCATCCACTCGCCGCGCCAAACACCACAAGTCCTCGCCACCGGAGTCACCTAGTGCAG | 9680 fluorescence intensity (a.u.)
33 | CTATTCGAGCCCTTTTTCCTATTCTTTTGTATATAGTTCTCGGAGTCACCTAGTGCAG | 11300 fluorescence intensity (a.u.)
34 | ATCCTCTCGGACGCAGGTTATCTCACTATTTCATTTTTTTCGGAGTCACCTAGTGCAG | 8240 fluorescence intensity (a.u.)
35 | AAGAAAACACGCTTCTCCCTTCTCCTCTTTTCCCTTTTTTCGGAGTCACCTAGTGCAG | 9150 fluorescence intensity (a.u.)
36 | GGGCTCATGATTGGGGATATGGCGGTGTTGGCGAAGAATGCGGAGTCACCTAGTGCAG | 11500 fluorescence intensity (a.u.)
37 | GTACACCGTAGCTCTATCTCCTCCACGCAAAACCCACCGGCGGAGTCACCTAGTGCAG | 8230 fluorescence intensity (a.u.)
38 | TACACGCAATCTATGTAATCAGTTATTTTTTCGTTTATATCGGAGTCACCTAGTGCAG | 8200 fluorescence intensity (a.u.)
39 | GGCGCTACAAAGTGCTTCACATCTTTGCCTCGTTCGTCCTCGGAGTCACCTAGTGCAG | 9110 fluorescence intensity (a.u.)
40 | AAATTATGTTTGATCACTCAGCAATTTCTGTTTCGTTTATCGGAGTCACCTAGTGCAG | 9330 fluorescence intensity (a.u.)
41 | TTGCAATCCTCTGTTTTACACTTGTATTCCAGTCAGAATCCGGAGTCACCTAGTGCAG | 8240 fluorescence intensity (a.u.)
42 | GTTGTGGGTGTTCGATATTTTGATCTCCATCGGACGATCGCGGAGTCACCTAGTGCAG | 10600 fluorescence intensity (a.u.)
43 | AACTCCTGGCCTGTGTTGGGCTACAGTTTTGGTTCCTAGTCGGAGTCACCTAGTGCAG | 8720 fluorescence intensity (a.u.)
44 | CCCACCGCCGCCGCCGCCGCCTCCATCGCCGCCGCCGACACGGAGTCACCTAGTGCAG | 8640 fluorescence intensity (a.u.)
45 | TTCGATCCAGAGCTCTCTGCCTCTCTAGCTAGCTTCAATTCGGAGTCACCTAGTGCAG | 9760 fluorescence intensity (a.u.)
46 | TACACTCTCCTCACCGATGATCCATCGCCGTCGCCATTGCCGGAGTCACCTAGTGCAG | 8650 fluorescence intensity (a.u.)
47 | ATTGTGCAGTTGTTCCCTAATCCCTCTGCATTTCAATTCACGGAGTCACCTAGTGCAG | 8930 fluorescence intensity (a.u.)
48 | ATCCTCTCAACCCATCACCCTATGATTTGATTCTATCCACCGGAGTCACCTAGTGCAG | 8660 fluorescence intensity (a.u.)
49 | GCCATAAGTTTCCGTGTCCAACTCATCTTATTTGAAATTTCGGAGTCACCTAGTGCAG | 11500 fluorescence intensity (a.u.)
50 | GCGGACAGCGCCGTCTCTGCTGTCTCTCTCTGTATGCTTCCGGAGTCACCTAGTGCAG | 9040 fluorescence intensity (a.u.)
51 | ATGACATCGTTGGTTTTCTTAATTTGGCTTTTTATAGATACGGAGTCACCTAGTGCAG | 8760 fluorescence intensity (a.u.)
52 | CCTTCCTTACCTACGTGCGATTCCTCTTCTCTTCCGCGCCCGGAGTCACCTAGTGCAG | 9700 fluorescence intensity (a.u.)
53 | CATTCTTAACTATGGACTTGGACTTCTTAGCAGTTATTTTCGGAGTCACCTAGTGCAG | 8330 fluorescence intensity (a.u.)
54 | CCGCTTGTCGTTGGAGCCCCGTCGCATGATGCCGACGCGCCGGAGTCACCTAGTGCAG | 9740 fluorescence intensity (a.u.)

Two entries from above, comma-delimited:
Row,Sequence,binding signal
44,CCCACCGCCGCCGCCGCCGCCTCCATCGCCGCCGCCGACACGGAGTCACCTAGTGCAG,8640 fluorescence intensity (a.u.)
53,CATTCTTAACTATGGACTTGGACTTCTTAGCAGTTATTTTCGGAGTCACCTAGTGCAG,8330 fluorescence intensity (a.u.)

Part of the list above, reformatted.
Row	Sequence	binding signal
49	GCCATAAGTTTCCGTGTCCAACTCATCTTATTTGAAATTTCGGAGTCACCTAGTGCAG	11500 fluorescence intensity (a.u.)
50	GCGGACAGCGCCGTCTCTGCTGTCTCTCTCTGTATGCTTCCGGAGTCACCTAGTGCAG	9040 fluorescence intensity (a.u.)
